Experimental data published in publication PMC11665689.
These are yes or no findings as the source states them, for the method shown. In cells and extracts the contact can be indirect. Some results given as binding are weak or reduced against the parent protein; the word gives no strength. Tags and fused reporters may be left off the sequences shown.

Amino acid sequences for entries named in this document (tags omitted).
UniProt Q99459: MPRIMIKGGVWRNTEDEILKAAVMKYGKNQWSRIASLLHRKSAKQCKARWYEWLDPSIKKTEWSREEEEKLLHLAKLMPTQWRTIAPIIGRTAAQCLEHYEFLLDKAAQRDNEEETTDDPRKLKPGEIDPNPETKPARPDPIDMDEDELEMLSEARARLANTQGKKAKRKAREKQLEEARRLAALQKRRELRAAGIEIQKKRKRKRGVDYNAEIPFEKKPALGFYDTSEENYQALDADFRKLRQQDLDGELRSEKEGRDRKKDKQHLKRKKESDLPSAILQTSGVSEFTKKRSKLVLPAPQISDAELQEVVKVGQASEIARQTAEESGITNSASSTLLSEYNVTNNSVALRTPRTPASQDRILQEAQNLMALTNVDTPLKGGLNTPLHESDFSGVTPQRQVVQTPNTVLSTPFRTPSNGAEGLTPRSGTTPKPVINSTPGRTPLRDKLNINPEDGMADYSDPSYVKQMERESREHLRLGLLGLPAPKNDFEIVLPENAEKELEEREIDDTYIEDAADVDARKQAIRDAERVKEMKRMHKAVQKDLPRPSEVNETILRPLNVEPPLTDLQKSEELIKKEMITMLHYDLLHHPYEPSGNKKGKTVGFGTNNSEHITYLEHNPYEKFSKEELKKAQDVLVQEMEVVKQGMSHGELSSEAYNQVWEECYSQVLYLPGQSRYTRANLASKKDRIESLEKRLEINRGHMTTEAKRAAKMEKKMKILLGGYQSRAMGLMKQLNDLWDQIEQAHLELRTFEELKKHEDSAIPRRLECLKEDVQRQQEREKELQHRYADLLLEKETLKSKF
UniProt O60828: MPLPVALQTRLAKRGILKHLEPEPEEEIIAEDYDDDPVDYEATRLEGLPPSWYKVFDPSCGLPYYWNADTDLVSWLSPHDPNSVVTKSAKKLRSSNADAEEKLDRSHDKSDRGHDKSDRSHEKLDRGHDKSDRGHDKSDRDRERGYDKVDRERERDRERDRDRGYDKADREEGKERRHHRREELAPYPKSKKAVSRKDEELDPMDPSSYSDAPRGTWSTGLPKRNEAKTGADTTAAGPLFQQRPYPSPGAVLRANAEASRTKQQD

T1: Flag-tagged CWF19L1 (CWF19-like cell cycle control factor 1) (human) (UniProt Q69YN2)
T1 sequence: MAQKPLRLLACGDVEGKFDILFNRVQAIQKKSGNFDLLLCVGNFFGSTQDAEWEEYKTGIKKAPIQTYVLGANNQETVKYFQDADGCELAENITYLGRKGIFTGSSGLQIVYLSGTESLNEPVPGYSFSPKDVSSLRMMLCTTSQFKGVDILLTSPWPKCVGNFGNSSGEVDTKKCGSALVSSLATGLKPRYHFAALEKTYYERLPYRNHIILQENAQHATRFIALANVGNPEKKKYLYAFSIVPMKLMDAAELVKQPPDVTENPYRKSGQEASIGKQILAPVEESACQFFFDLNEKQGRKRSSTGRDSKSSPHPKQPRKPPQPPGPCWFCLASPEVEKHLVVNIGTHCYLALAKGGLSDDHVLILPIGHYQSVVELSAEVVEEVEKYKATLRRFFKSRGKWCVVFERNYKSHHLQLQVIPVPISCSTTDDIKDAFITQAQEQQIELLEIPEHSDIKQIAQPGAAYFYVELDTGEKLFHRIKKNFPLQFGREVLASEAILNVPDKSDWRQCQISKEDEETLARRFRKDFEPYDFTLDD

B1: SNRNP40 (protein, UniProt Q96DI7 1-357)
chain: MIEQQKRKGPELPLVPVKRQRHELLLGAGSGPGAGQQQATPGALLQAGPPRCSSLQAPIMLLSGHEGEVYCCKFHPNGSTLASAGFDRLILLWNVYGDCDNYATLKGHSGAVMELHYNTDGSMLFSASTDKTVAVWDSETGERVKRLKGHTSFVNSCYPARRGPQLVCTGSDDGTVKLWDIRKKAAIQTFQNTYQVLAVTFNDTSDQIISGGIDNDIKVWDLRQNKLTYTMRGHADSVTGLSLSSEGSYLLSNAMDNTVRVWDVRPFAPKERCVKIFQGNVHNFEKNLLRCSWSPDGSKIAAGSADRFVYVWDTTSRRILYKLPGHAGSINEVAFHPDEPIIISASSDKRLYMGEIQ

Molecular target: T1, Flag-tagged CWF19L1 (CWF19-like cell cycle control factor 1) (human)
Assay: co-IP; HEK293T cells transfected with Flag vector, Flag-tagged CWF19L1 or truncated mutants; NP-40 lysis buffer (25 mM Tris-HCl pH 7.4, 150 mM NaCl, 1% NP-40, 1 mM EDTA, 1 mM EGTA), sonication; anti-Flag M2 magnetic beads 3 h at 4 °C; elution with 3 x FLAG peptide; bound endogenous proteins detected by Western blot

Molecule | binding
CDC5L (from UniProt Q99459 1-802) | binds
polyglutamine binding protein 1 (PQBP1) (from UniProt O60828 1-265) | binds
B1 | binds
